# Measured values reported in article PMC11832416, “Mechanism of polyadenylation-independent RNA polymerase II termination” (Nature Structural & Molecular Biology, 2024).
# Protein sequences, listed by entry. Tags and fused reporters are not part of them.
# UniProt Q00416: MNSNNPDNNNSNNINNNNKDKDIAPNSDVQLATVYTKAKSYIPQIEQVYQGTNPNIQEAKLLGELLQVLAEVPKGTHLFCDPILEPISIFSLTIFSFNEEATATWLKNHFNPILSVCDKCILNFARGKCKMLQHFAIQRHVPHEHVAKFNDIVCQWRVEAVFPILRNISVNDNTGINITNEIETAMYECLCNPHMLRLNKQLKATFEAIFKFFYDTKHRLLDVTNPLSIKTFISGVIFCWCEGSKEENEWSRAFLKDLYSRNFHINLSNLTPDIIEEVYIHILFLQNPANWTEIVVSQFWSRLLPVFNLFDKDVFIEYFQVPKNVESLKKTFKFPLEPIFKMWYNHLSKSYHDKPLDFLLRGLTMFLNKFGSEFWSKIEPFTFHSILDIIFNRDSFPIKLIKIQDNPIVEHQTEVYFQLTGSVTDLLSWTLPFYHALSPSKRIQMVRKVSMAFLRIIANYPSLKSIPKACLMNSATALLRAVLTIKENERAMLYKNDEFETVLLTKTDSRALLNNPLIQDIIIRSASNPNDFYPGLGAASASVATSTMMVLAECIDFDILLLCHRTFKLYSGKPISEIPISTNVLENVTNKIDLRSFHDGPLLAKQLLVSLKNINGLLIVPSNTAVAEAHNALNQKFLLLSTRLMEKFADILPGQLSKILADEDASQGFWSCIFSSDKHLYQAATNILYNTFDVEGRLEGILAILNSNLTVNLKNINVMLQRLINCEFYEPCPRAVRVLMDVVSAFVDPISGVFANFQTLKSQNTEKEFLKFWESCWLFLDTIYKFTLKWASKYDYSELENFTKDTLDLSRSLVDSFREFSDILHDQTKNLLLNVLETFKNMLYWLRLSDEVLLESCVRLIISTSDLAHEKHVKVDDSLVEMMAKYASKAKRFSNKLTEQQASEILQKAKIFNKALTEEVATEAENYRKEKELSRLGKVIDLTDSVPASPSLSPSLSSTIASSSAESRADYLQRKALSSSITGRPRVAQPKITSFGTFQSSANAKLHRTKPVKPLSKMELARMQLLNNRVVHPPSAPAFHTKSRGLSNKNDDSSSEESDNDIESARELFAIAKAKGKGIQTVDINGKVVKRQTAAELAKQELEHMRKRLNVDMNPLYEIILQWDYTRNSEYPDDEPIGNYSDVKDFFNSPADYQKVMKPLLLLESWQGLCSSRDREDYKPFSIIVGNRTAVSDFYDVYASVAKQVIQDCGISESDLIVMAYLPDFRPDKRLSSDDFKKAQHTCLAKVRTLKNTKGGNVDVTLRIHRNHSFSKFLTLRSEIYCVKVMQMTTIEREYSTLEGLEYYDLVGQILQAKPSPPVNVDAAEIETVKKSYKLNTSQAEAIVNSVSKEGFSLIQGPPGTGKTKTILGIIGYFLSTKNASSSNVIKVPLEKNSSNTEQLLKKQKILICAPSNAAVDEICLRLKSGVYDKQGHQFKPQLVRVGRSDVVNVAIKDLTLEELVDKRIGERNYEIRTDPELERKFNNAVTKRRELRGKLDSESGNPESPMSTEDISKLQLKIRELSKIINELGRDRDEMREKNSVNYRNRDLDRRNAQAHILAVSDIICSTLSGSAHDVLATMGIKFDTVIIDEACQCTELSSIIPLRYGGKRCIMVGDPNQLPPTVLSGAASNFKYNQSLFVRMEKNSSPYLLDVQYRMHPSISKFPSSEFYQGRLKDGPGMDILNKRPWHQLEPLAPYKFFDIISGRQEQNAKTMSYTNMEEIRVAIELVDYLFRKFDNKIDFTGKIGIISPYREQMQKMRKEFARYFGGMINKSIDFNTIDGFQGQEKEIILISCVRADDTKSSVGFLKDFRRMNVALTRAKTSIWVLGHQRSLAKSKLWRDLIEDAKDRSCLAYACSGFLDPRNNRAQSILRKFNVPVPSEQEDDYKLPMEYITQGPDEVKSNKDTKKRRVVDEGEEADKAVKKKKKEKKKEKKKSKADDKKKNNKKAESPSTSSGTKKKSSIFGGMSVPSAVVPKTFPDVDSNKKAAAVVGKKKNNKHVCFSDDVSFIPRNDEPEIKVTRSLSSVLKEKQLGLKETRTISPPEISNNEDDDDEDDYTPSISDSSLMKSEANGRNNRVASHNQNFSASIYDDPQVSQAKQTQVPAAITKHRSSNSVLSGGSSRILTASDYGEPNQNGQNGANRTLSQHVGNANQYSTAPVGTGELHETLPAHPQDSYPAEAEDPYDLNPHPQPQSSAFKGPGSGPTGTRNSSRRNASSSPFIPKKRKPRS
# Like-named read-outs stand apart in the source and are kept apart here. No constants are given. Whether binding was seen depends on the method and setting. Some binding calls cover weakened binding; strength is not graded here. Where a sequence is shown, tags or fusion partners need not be part of it.
# T1: Saccharomyces cerevisiae Spt4 (S. cerevisiae) (UniProt P32914)
# T1 sequence: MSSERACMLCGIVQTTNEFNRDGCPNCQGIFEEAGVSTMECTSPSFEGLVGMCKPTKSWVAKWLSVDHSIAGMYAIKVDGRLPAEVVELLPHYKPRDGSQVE
# T2: Saccharomyces cerevisiae Elf1 (S. cerevisiae) (UniProt P36053)
# T2 sequence: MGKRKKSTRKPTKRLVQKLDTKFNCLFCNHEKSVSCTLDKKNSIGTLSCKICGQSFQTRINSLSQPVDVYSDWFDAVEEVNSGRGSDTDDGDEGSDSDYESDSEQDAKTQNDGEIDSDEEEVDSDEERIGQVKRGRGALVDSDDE
# T3: Saccharomyces cerevisiae Spt5 (S. cerevisiae) (UniProt P27692)
# T3 sequence: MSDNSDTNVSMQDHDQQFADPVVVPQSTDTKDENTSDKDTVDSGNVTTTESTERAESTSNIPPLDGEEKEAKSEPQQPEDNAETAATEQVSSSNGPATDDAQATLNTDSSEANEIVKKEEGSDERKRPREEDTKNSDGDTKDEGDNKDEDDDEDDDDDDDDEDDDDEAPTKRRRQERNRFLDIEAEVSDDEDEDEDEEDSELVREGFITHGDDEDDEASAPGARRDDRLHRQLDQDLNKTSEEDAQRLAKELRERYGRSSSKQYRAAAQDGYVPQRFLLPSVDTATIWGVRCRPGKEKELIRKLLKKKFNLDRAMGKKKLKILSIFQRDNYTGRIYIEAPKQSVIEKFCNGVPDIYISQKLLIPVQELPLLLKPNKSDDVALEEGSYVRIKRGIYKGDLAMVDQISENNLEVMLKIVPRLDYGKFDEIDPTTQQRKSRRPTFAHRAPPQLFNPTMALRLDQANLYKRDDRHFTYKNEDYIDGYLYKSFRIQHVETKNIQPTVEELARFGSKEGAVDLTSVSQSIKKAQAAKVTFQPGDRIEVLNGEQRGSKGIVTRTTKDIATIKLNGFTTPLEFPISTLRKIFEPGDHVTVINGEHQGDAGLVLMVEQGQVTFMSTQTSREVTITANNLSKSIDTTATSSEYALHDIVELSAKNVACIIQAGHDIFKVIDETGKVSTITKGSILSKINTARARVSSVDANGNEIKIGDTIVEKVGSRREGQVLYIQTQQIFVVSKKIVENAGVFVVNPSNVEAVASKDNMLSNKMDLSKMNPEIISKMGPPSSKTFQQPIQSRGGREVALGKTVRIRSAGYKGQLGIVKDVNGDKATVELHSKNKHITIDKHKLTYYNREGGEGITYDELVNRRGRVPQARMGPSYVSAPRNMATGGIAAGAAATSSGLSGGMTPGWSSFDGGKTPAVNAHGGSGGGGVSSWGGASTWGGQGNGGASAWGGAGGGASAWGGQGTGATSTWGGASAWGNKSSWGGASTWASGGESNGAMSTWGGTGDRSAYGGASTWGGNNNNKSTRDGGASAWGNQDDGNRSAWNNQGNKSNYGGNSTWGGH
# Assays:
# Experiment in all cases: cryo-EM structure; pre-TC reconstituted from purified CDK7-phosphorylated Pol II, Spt4-Spt5 complex, Elf1 and Sen1 on a DNA-RNA scaffold with a 35-nt RNA; buffer EM (25 mM HEPES pH 7.6, 100 mM KCl, 5 mM MgCl2, 3 mM TCEP); 10-30% sucrose gradient with crosslinking (GraFix); apo state, no nucleotide; both purified
# [1] = target: T1, Saccharomyces cerevisiae Spt4 (S. cerevisiae)
# [2] = target: T2, Saccharomyces cerevisiae Elf1 (S. cerevisiae)
# [3] = target: T3, Saccharomyces cerevisiae Spt5 (S. cerevisiae)
# [4] = target: T3, Saccharomyces cerevisiae Spt5 (S. cerevisiae); remark: listed apart in the source
binding [1],binding [2],binding [3],binding [4],Molecule
no binding,no binding,no binding,,Saccharomyces cerevisiae Sen1 full length (Sen1 FL) (from UniProt Q00416 1-2231) (enzyme)
,,,binds,"Saccharomyces cerevisiae Spt4 (protein, UniProt P32914 1-102) MSSERACMLCGIVQTTNEFNRDGCPNCQGIFEEAGVSTMECTSPSFEGLVGMCKPTKSWVAKWLSVDHSIAGMYAIKVDGRLPAEVVELLPHYKPRDGSQVE"
